# Source: the supplement of paper PMC12823440, “Inhibitors supercharge kinase turnover through native proteolytic circuits” (Nature, 2025)
# Chains of the proteins cited; added tags and fusions are not shown. Lines headed by an entry give the natural chain unless they say otherwise; changes in a name come on top.
# UniProt Q16288, whole entry, looked up: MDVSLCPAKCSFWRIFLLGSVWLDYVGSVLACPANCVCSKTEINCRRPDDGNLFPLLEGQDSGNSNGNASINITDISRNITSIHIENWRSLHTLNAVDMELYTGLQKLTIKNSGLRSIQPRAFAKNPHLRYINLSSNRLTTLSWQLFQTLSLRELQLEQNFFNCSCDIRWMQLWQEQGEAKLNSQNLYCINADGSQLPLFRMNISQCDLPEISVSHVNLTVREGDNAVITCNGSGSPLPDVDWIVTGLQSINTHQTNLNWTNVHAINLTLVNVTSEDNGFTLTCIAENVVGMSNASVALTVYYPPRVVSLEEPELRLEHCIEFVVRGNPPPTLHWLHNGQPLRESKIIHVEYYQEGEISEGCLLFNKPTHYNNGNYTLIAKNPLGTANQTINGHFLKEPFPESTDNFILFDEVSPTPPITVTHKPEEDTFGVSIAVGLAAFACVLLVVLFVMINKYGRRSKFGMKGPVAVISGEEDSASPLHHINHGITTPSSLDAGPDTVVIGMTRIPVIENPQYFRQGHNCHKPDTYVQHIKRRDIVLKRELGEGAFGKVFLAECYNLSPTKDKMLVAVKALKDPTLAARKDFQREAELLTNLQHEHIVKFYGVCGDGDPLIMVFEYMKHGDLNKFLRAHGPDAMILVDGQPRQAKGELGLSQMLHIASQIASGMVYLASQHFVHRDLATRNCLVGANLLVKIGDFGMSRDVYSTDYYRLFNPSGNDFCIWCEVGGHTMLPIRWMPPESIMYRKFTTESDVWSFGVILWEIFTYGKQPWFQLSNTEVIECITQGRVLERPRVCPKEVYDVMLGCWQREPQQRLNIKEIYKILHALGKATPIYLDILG
# UniProt O96013: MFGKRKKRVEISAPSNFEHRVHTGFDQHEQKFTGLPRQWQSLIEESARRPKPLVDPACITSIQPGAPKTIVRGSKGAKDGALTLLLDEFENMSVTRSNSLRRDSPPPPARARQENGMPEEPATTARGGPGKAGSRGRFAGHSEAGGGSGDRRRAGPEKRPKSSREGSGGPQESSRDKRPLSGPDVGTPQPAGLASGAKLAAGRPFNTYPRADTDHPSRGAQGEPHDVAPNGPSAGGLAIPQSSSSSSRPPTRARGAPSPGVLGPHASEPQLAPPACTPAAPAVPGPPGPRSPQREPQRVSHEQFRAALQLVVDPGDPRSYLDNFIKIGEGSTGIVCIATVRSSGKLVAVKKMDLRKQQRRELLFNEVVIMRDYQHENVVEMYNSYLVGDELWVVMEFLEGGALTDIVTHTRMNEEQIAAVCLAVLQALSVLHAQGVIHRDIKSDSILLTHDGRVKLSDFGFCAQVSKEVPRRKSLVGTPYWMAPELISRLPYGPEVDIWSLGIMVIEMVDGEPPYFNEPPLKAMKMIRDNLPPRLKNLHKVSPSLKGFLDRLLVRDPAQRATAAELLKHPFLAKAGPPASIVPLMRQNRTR
# Some of the results follow. Hit calls seldom repeat between salt and free forms of one compound.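 Kinases, fused to nanoluciferase, were expressed in K562 cells; luminescence was measured every 4 h from 2 to 18 h as percent of control (DMSO = 100%, positive control = 0%). A time point is decreased if signal falls significantly (2 sigma). Hits were called by the authors by a rule that is not shown; the count of time points alone does not decide it.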
# Molecular target: NTRK3 (UniProt Q16288)
# Experiment: number of time points (of 5) at which kinase-Nluc abundance scored as decreased, DMSO-normalised (count); higher = more persistent destabilization
# Settings: K562; 2-18 h
row,SMILES,number of time points
1,COC(=O)Nc1ccc(-c2nc(N3CCOCC3)c3cnn(C4CCN(Cc5cccnc5)CC4)c3n2)cc1 (10 µM),0
2,N[C@@H]1CCCN(c2c(/C=C3\SC(=O)NC3=O)cccc2-c2ccccc2)C1 (10 µM),0
3,Nc1nc(N)c2nc(-c3cccc(O)c3)c(-c3cccc(O)c3)nc2n1 (10 µM),0
4,Cn1ncc(NC(=O)c2nc(-c3c(F)cccc3F)sc2N)c1N1CC[C@@H](N)[C@H](F)CC1 (10 µM),0
5,C=C1C(=O)[C@@]23[C@H](O)C[C@@H]4C(C)(C)C(=O)CC[C@@]4(C)[C@@H]2CC[C@@H]1[C@H]3O [Glaucocalyxin A] (2.5 µM),0
6,O=C(NCCO)c1cc(C(=O)NCCO)cc(C(=O)NCCO)c1 (10 µM),0
7,CCC(=O)Nc1cccc(Oc2nc(Nc3ccc(N4CCN(C)CC4)cc3OC)ncc2Cl)c1 (10 µM),0
8,Cc1nn(C)cc1-c1nc2c(N3CCN(Cc4ccc(Cl)cc4)CC3)c(Cl)cnc2[nH]1 (10 µM),0
9,CC(C)Oc1ccc(F)c(-c2cnc(N)c(C(=O)Nc3cnccc3N3CCC[C@@H](C(=O)O)C3)n2)c1 (2 µM),0
10,Nc1ncc(C(=O)NC2CN(C(=O)C3CC3)C2)c2ccc(-c3cccc(F)c3)nc12 (2 µM),0
11,O=C(ON=C1c2ccccc2-c2nc3ccccc3nc21)c1ccco1 (2.5 µM),0
12,CC(C)=CC[C@@H](O)C1=CC(=O)c2c(O)ccc(O)c2C1=O [Shikonin] (10 µM),0
13,COC(=O)Nc1ccc(-c2nc(N3CCOCC3)c3cnn(C4CCN(C(=O)OC)CC4)c3n2)cc1 (10 µM),0
14,CNC(=O)c1ccc2c(c1)ncn2-c1ccc(CC(=O)OC(C)(C)C)cc1 (10 µM),0
15,O=C1CC[C@H](NC(=O)Cc2ccccc2)C(=O)N1 [Antineoplaston A10] (10 µM),0
16,COCCOCCc1c(C)c2cc(OC)c(O)c(C=O)c2oc1=O (10 µM),0
17,Cc1ccc(C(=O)NC2CC2)cc1-n1ncc(C(=O)c2cccc(C#N)c2)c1N [Acumapimod] (10 µM),0
18,O=C(NCCN1CCOCC1)Nc1nc2ccc(Sc3nnc4ccc(-c5ccc(F)cc5)nn34)cc2s1 (10 µM),0
19,COc1cc(F)ccc1-c1ncnc(Nc2cccc(C[S@](C)(=N)=O)c2)n1 [Atuveciclib] (2.5 µM),0
20,CCn1c(-c2nonc2N)nc2c(C#CC(C)(C)O)ncc(OC[C@H]3CCCNC3)c21 (10 µM),0
21,O=c1[nH]ccc2nc(-c3ccc(CN4CCC(c5nc(-c6ccccn6)n[nH]5)CC4)cc3)c(-c3ccccc3)cc12 (10 µM),0
22,COCCOc1ccc2c(c1)ncn2-c1ccc2cccc(N3CCC(N)CC3)c2n1 (10 µM),2
23,CN1CCC(CNc2ccc3ncc(-c4cccc(OC(F)(F)F)c4)n3n2)CC1 (2.5 µM),0
24,Cc1cc(C(=O)NC(C)(C)C)cc(C#Cc2ccc3c4c(oc3c2)C(C)(C)c2cc(NS(C)(=O)=O)ccc2C4=O)n1 (10 µM),0
25,CC(O)(C#Cc1ccc2c(c1)N(c1nc(N)ncc1Cl)CC2)c1nccs1 (stereo not given) (2.5 µM),0
26,COc1cc(-c2cc(-c3ccc(N4CCNCC4)cc3)cnc2C)cc(OC)c1OC (10 µM),0
27,Cn1c(CNc2cccc(C(=O)NCc3ccccc3C(F)(F)F)c2)nnc1-c1ccncc1 (10 µM),0

# Molecular target: PAK4 (UniProt O96013)
# Experiment: as above
# Settings: K562; 2-18 h
row,SMILES,number of time points
1,O=Nc1c(-c2c(O)[nH]c3cc(Br)ccc23)[nH]c2ccccc12 [GSK 3 Inhibitor IX] (2.5 µM),0
2,Cn1c2cc([S+](C)[O-])sc2c2cnn(Cc3cccc(N)c3)c(=O)c21 (stereo not given) (2.5 µM),0
3,Cc1cc(-n2c(=O)ccc3c[nH]c4nccc-4c32)ccc1F (10 µM),0
4,CCCn1/c(=N/C(=O)c2cccc(C(N)=O)c2)[nH]c2ccccc21 [Takinib] (10 µM),0
5,CO[C@H]1C[C@@H]2CC[C@@H](C)[C@@](O)(O2)C(=O)C(=O)N2CCCC[C@H]2C(=O)O[C@H]([C@H](C)C[C@@H]2CC[C@@H](OCCO)[C@H](OC)C2)CC(=O)[C@H](C)/C=C(\C)[C@@H](O)[C@@H](OC)C(=O)[C@H](C)C[C@H](C)/C=C/C=C/C=C/1C [Everolimus] (10 µM),0
6,Cc1cccc(-c2[nH]ncc2-c2ccnc3ccccc23)n1 (10 µM),0
7,CC1(N)CCN(c2cccnc2NC(=O)c2nc(-c3ncccc3C(F)(F)F)cnc2N)CC1 [Darovasertib] (10 µM),0
8,COc1cc2c(cc1Nc1ncc(C(N)=O)c(Nc3c(F)cccc3C(F)(F)F)n1)CN(C)CC2 (2.5 µM),0
9,COc1cc2ncnc(Nc3ccc(O)c(Br)c3)c2cc1OC (10 µM),0
10,Nc1nc2c(nc(Br)n2[C@@H]2O[C@@H]3COP(=O)(O)O[C@H]3[C@H]2O)c(=O)[nH]1 [8-Bromo-cGMP (sodium)] (10 µM),0
11,O=c1c2c([nH]n1-c1nc3ccccc3s1)CCCC2 (10 µM),0
12,COC(=O)Nc1ccc(-c2nc(N3CCOCC3)c3cnn(C4CCN(Cc5cccnc5)CC4)c3n2)cc1 (10 µM),0
13,N[C@@H]1CCCN(c2c(/C=C3\SC(=O)NC3=O)cccc2-c2ccccc2)C1 (10 µM),0
14,Nc1nc(N)c2nc(-c3cccc(O)c3)c(-c3cccc(O)c3)nc2n1 (10 µM),0
15,Cn1ncc(NC(=O)c2nc(-c3c(F)cccc3F)sc2N)c1N1CC[C@@H](N)[C@H](F)CC1 (10 µM),0
16,C=C1C(=O)[C@@]23[C@H](O)C[C@@H]4C(C)(C)C(=O)CC[C@@]4(C)[C@@H]2CC[C@@H]1[C@H]3O [Glaucocalyxin A] (2.5 µM),0
17,O=C(NCCO)c1cc(C(=O)NCCO)cc(C(=O)NCCO)c1 (10 µM),0
18,CCC(=O)Nc1cccc(Oc2nc(Nc3ccc(N4CCN(C)CC4)cc3OC)ncc2Cl)c1 (10 µM),0
19,Cc1nn(C)cc1-c1nc2c(N3CCN(Cc4ccc(Cl)cc4)CC3)c(Cl)cnc2[nH]1 (10 µM),0

row,SMILES,number of time points
1,CC(C)Oc1ccc(F)c(-c2cnc(N)c(C(=O)Nc3cnccc3N3CCC[C@@H](C(=O)O)C3)n2)c1 (2 µM),0
2,Nc1ncc(C(=O)NC2CN(C(=O)C3CC3)C2)c2ccc(-c3cccc(F)c3)nc12 (2 µM),0
3,O=C(ON=C1c2ccccc2-c2nc3ccccc3nc21)c1ccco1 (2.5 µM),0
4,CC(C)=CC[C@@H](O)C1=CC(=O)c2c(O)ccc(O)c2C1=O [Shikonin] (10 µM),0
5,COC(=O)Nc1ccc(-c2nc(N3CCOCC3)c3cnn(C4CCN(C(=O)OC)CC4)c3n2)cc1 (10 µM),0
6,CNC(=O)c1ccc2c(c1)ncn2-c1ccc(CC(=O)OC(C)(C)C)cc1 (10 µM),0
7,O=C1CC[C@H](NC(=O)Cc2ccccc2)C(=O)N1 [Antineoplaston A10] (10 µM),0
8,COCCOCCc1c(C)c2cc(OC)c(O)c(C=O)c2oc1=O (10 µM),0
9,Cc1ccc(C(=O)NC2CC2)cc1-n1ncc(C(=O)c2cccc(C#N)c2)c1N [Acumapimod] (10 µM),0
10,O=C(NCCN1CCOCC1)Nc1nc2ccc(Sc3nnc4ccc(-c5ccc(F)cc5)nn34)cc2s1 (10 µM),0
11,COc1cc(F)ccc1-c1ncnc(Nc2cccc(C[S@](C)(=N)=O)c2)n1 [Atuveciclib] (2.5 µM),0
12,CCn1c(-c2nonc2N)nc2c(C#CC(C)(C)O)ncc(OC[C@H]3CCCNC3)c21 (10 µM),0
13,O=c1[nH]ccc2nc(-c3ccc(CN4CCC(c5nc(-c6ccccn6)n[nH]5)CC4)cc3)c(-c3ccccc3)cc12 (10 µM),0
14,COCCOc1ccc2c(c1)ncn2-c1ccc2cccc(N3CCC(N)CC3)c2n1 (10 µM),0
15,CN1CCC(CNc2ccc3ncc(-c4cccc(OC(F)(F)F)c4)n3n2)CC1 (2.5 µM),0
16,Cc1cc(C(=O)NC(C)(C)C)cc(C#Cc2ccc3c4c(oc3c2)C(C)(C)c2cc(NS(C)(=O)=O)ccc2C4=O)n1 (10 µM),0
17,CC(O)(C#Cc1ccc2c(c1)N(c1nc(N)ncc1Cl)CC2)c1nccs1 (stereo not given) (2.5 µM),0
18,COc1cc(-c2cc(-c3ccc(N4CCNCC4)cc3)cnc2C)cc(OC)c1OC (10 µM),0
19,Cn1c(CNc2cccc(C(=O)NCc3ccccc3C(F)(F)F)c2)nnc1-c1ccncc1 (10 µM),0
